This is an account of results in article PMC10797686.

Amino acid sequences for entries named in this document (tags omitted).
UniProt O95863: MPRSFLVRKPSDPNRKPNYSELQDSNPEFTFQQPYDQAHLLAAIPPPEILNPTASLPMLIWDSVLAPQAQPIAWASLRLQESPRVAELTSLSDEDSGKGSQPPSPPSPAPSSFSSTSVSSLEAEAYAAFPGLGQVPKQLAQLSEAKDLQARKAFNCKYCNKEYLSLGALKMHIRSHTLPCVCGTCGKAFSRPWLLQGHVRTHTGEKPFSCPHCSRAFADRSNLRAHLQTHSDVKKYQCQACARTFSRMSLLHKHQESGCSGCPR

This experiment deals with Flag-tagged Snail1 (Flag-Snail1) (UniProt O95863). In words: co-IP; exogenous co-IP: HEK293T, AGS and MKN-45 cells transfected for 48 h with Flag- and HA-tagged vectors (truncation mutants in HEK293T only); anti-Flag antibody on Protein A/G magnetic beads, 30 min at room temperature, washed four times with PBST; Western blot. Background: Immunoblotting shows a protein as a band on a membrane.

These are yes or no findings as the source states them, for the method shown. In cells and extracts the contact can be indirect. Where a sequence is shown, tags or fusion partners need not be part of it.

B1: HA-tagged USP35 truncation mutant with the C-terminal USP domain deleted (domain or fragment, UniProt Q9P2H5 1-432)
chain: MDKILEAVVTSSYPVSVKQGLVRRVLEAARQPLEREQCLALLALGARLYVGGAEELPRRVGCQLLHVAGRHHPDVFAEFFSARRVLRLLQGGAGPPGPRALACVQLGLQLLPEGPAADEVFALLRREVLRTVCERPGPAACAQVARLLARHPRCVPDGPHRLLFCQQLVRCLGRFRCPAEGEEGAVEFLEQAQQVSGLLAQLWRAQPAAILPCLKELFAVISCAEEEPPSSALASVVQHLPLELMDGVVRNLSNDDSVTDSQMLTAISRMIDWVSWPLGKNIDKWIIALLKGLAAVKKFSILIEVSLTKIEKVFSKLLYPIVRGAALSVLKYMLLTFQHSHEAFHLLLPHIPPMVASLVKEDSNSGTSCLEQLAELVHCMVFRFPGFPDLYEPVMEAIKDLHVPNEDRIKQLLGQDAWTSQKSELAGFYPRL
For B1, the binding entry is “no binding”.
